Source: PubChem BioAssay AID1259254 (NCATS, 2017)

Test: 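Finding genes that stop cells copying their DNA twice in one cycle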 (primary screen)
Cell system: human HCT116 colorectal cancer cells
Reagent: single siRNA against human genes
Duration: 3 days
Measurement: 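Nuclei stained with Hoechst and imaged; cell-cycle phase assigned by DNA content; G2 share scaled per plate, non-targeting siRNA 0%, GMNN siRNA 100%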
Scale: G2 robust z-score and G2 cells, % of GMNN control: higher = more G2 cells, more excess DNA replication; raw share of cells in G2: higher = larger share of cells with G2 DNA content
Active means: 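An siRNA counts as active if its G2 robust z-score lies at least 5 MADs above the screen median; here such calls match roughly 38% of GMNN control or more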
Here is an unselected part of about 59,000 deposited reagents. About 1,550 of all reagents (2.6%) count as active. 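G2 share is only a proxy for re-replication; each gene was hit by three separate siRNAs, and active genes were retested.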 Raw values vary from plate to plate and are shown uncorrected. Reagents against one gene are numbered here. The record does not give: the amount of reagent.

no.	target gene	reagent	G2 robust z-score	G2 cells, % of GMNN control	raw share of cells in G2 (%)	outcome
1	MED22	1	1.91	16.4	12.4	inactive
2	MED22	2	1.94	16.6	10.5	inactive
3	MED22	3	-0.678	-1.8	2.71	inactive
4	TMEM106B	1	-1.28	-6.07	1.43	inactive
5	TMEM106B	2	-0.336	0.606	4.53	inactive
6	TMEM106B	3	0.185	4.27	4.6	inactive
7	LOC645481	1	1.99	17	8.43	inactive
8	LOC645481	2	3.86	30.1	15.1	inactive
9	LOC645481	3	-0.756	-2.35	2.35	inactive
10	RRAGC	1	-1.31	-6.25	3.06	inactive
11	RRAGC	2	-0.218	1.43	4.74	inactive
12	RRAGC	3	-0.0963	2.29	5.16	inactive
13	MOCOS	1	0.906	9.34	8.11	inactive
14	MOCOS	2	0.387	5.69	6.49	inactive
15	MOCOS	3	-0.796	-2.63	2.3	inactive
16	SH3PXD2B	1	-0.441	-0.133	3.59	inactive
17	SH3PXD2B	2	-0.531	-0.769	2.75	inactive
18	SH3PXD2B	3	-1.21	-5.54	1.58	inactive
19	ACVR1B	1	-1.57	-8.07	2.94	inactive
20	ACVR1B	2	-0.601	-1.26	4.98	inactive
21	ACVR1B	3	-0.912	-3.45	2.81	inactive
22	BTG3	1	-0.417	0.0356	5	inactive
23	BTG3	2	0.971	9.8	8.18	inactive
24	BTG3	3	-0.35	0.505	3.36	inactive
25	RBM17	1	0.954	9.68	10.2	inactive
26	RBM17	2	3.65	28.7	17.3	inactive
27	RBM17	3	-0.39	0.225	4.57	inactive
28	GJD3	1	-0.101	2.26	3.87	inactive
29	GJD3	2	-0.369	0.374	3.3	inactive
30	GJD3	3	0.0946	3.63	4.8	inactive
31	FUBP1	1	1.11	10.8	8.56	inactive
32	FUBP1	2	3.32	26.3	14.5	inactive
33	FUBP1	3	-0.561	-0.982	4.09	inactive
34	IRF3	1	-0.701	-1.97	3.48	inactive
35	IRF3	2	0.832	8.82	9.04	inactive
36	IRF3	3	-0.718	-2.08	4.29	inactive
37	SERF1A	1	0.0925	3.62	5.64	inactive
38	SERF1A	2	0.569	6.97	5.72	inactive
39	SERF1A	3	0.394	5.74	5.34	inactive
40	TRIM52	1	2.58	21.1	14.2	inactive
41	TRIM52	2	0.213	4.47	6.44	inactive
42	TRIM52	3	0.354	5.46	6.17	inactive
43	HGH1	1	2.79	22.6	13.1	inactive
44	HGH1	2	1.83	15.8	8.25	inactive
45	HGH1	3	2.12	17.9	10.7	inactive
46	UBE2K	1	-0.274	1.04	5.42	inactive
47	UBE2K	2	-0.26	1.14	6.12	inactive
48	UBE2K	3	0.41	5.85	6.35	inactive

In a second layout: results already given
target gene | reagent | G2 robust z-score | G2 cells, % of GMNN control | raw share of cells in G2 (%) | outcome
TMEM106B | 1 | -1.28 | -6.07 | 1.43 | inactive
TMEM106B | 2 | -0.336 | 0.606 | 4.53 | inactive
TMEM106B | 3 | 0.185 | 4.27 | 4.6 | inactive
LOC645481 | 1 | 1.99 | 17 | 8.43 | inactive
LOC645481 | 2 | 3.86 | 30.1 | 15.1 | inactive
